Data reported in patent US20240238386A1, “METHODS FOR INCREASING RED BLOOD CELL HALF-LIFE AND ASSOCIATED TREATMENT OF ANEMIA” (Marshall University Research Corporation, priority 2021, published 2024).
Values joined by “and” are separate entries in the source; they are usually repeats but may differ in a detail not shown here. Identical values can stand only once. “Also recorded” adds a separate entry of the source.

Assays:
protein carbonylation = test: Protein carbonylation of plasma samples (immunoblotting); type: in vivo, C57BL6 mice; conditions: PNx mice; plasma at the experiment's conclusion
Description: (§1) Animal study: All animal care and experiments were approved by the Marshall University Institutional Animal Care and Use Committee (IACUC) in accordance with the National Institutes of Health (NIH) Guide for the Care and Use of Laboratory Animals. The animal facility is AAALAC-accredited and maintained at an SPF status. C57BL6 mice (10-12 weeks old) were purchased from the Jackson Laboratory (Bar Harbor, ME) and housed in a pathogen-free animal facility under a 12-hour light/dark cycle. Standard rodent chow diet (Rodent Diet 5001, LabDiet, St Louis, MO) and water were supplied ad libitum. Mice were randomly divided into six experimental groups: (1) Sham; (2) Sham+pNaKtide; (3) ⅚th partial nephrectomy (PNx); (4) PNx+pNaKtide; (5) PNx+NaKtide; and (6) PNx+scramble pNaKtide (sc-pNaKtide).
(§2) The ⅚^th partial nephrectomy with pole ligation (PNx) and sham surgery: PNx and sham surgery methods were performed as described previously. […]
(§3) Immunoblotting analyses of protein carbonylation and EPO in plasma samples: Plasma (50 μL) samples were lysed with 250 μL of RIPA lysis buffer (with protease and phosphatase inhibitor cocktail) and cleared by centrifugation. The protein concentration was determined by BCA protein assay kit (Bio-Rad). […] The signals from immunoblotting and PVDF membrane protein stain were obtained with FluorChem M and calculated with AlphaView software (ProteinSimple).

[1] = Iron homeostasis (plasma iron, TIBC, UIBC, iron saturation rate); type: in vivo, C57BL6 mice; conditions: end of experiment; comparison amongst groups
Description: as §1
The ⅚^th partial nephrectomy with pole ligation (PNx) and sham surgery: PNx and sham surgery methods were performed as described previously. Briefly, the PNx surgery is divided into two separate procedures. The first surgery involves ligation of the left kidney of the upper and lower poles. […]
Assessment of iron homeostasis: Plasma iron concentration, TIBC (total iron-binding capacity), UIBC (unsaturated iron-binding capacity), and iron saturation rate (%) were assessed with Iron/TIBC Reagent Set (Cat #1750460) from Pointe Scientific (Canton, MI), according to the manufacturer's instruction.

EPO = test: Immunoblotting of plasma EPO; type: in vivo, C57BL6 mice; conditions: end of experiment
Description: as §1, §2, §3

RBC [2] = test: RBC half-life by flow cytometry (biotinylated RBC, streptavidin-PE); type: in vivo, C57BL6 mice
Description: as §1
The ⅚^th partial nephrectomy with pole ligation (PNx) and sham surgery: PNx and sham surgery methods were performed as described previously. Briefly, the PNx surgery is divided into two separate procedures. The first surgery involves ligation of the left kidney of the upper and lower poles. Seven days later, the second surgery involves the removal of the right kidney. […]
Assessment of RBC half-life by flow cytometry: The RBC half-life was assessed by labeling RBC with biotin and detection with streptavidin-PE. […] Bodyweight for each mouse was measured to calculate the dose and volume. […]

[3] = test system: ⅚th partial nephrectomy (PNx) mice; test: Hematocrit (Hct) in Sham and ⅚th partial nephrectomy (PNx) mice; type: in vivo, C57BL6 mice; conditions: 25 mg/kg s.c. weekly, three doses
Description: as §1
(§4) The ⅚^th partial nephrectomy with pole ligation (PNx) and sham surgery: PNx and sham surgery methods were performed as described previously. Briefly, the PNx surgery is divided into two separate procedures. The first surgery involves ligation of the left kidney of the upper and lower poles. Seven days later, the second surgery involves the removal of the right kidney. If the mice were in overall healthy condition after 3 days, the study was commenced. […]

[4] = Plasma BUN (urea assay kit), renal function; type: in vivo, C57BL6 mice; conditions: PNx mice
Description: Chemicals, reagents, and antibodies: All chemicals, except otherwise mentioned, were obtained from Sigma-Aldrich (St. Louis, MO). EZ-Link Sulfo-NHS Biotin (water-soluble and cell membrane-impermeable, Cat #A39256), fluorescent DNA dye 7-Aminoactinomycin-D (7-AAD, Cat #A1310), Thiazole Orange (Cat #50-196-4656), protease/phosphatase inhibitor cocktail (Cat #78442), and Pierce Reversible Protein Stain Kit—for PVDF membrane (Cat #24585) were from ThermoFisher Scientific (Waltham, MA). Antibody against EPO (clone B-4, Cat #sc-5290), RIPA lysis buffer system (Cat #sc-24948), and HRP-conjugated secondary antibodies were from Santa Cruz (Santa Cruz, CA). Streptavidin-PE (Cat #562284), Annexin V binding buffer (10×, Cat #556454), Annexin V-APC (Cat #550475), and microtainer (Cat #365965) were from BD Biosciences (San Jose, CA). DNPH (Cat #D199303) and anti-DNP antibody (Cat #D9656) were from Sigma-Aldrich. Urea assay kit (Cat #ab8362) for plasma BUN assay was from Abcam (Boston, MA), and Iron/TIBC Reagents (Cat #1750460) was from Pointe Scientific (Canton, MI). […]
(§5) Plasma BUN and creatinine levels were measured to assess the effect of PNx (and administration of the pNaKtide, NaKtide, and sc-pNaKtide) on renal function.

reticulocytes = test: Reticulocyte count by flow cytometry (Thiazole Orange); type: in vivo, C57BL6 mice; conditions: end of experiment (Day 28)
Description: Animal study: All animal care and experiments were approved by the Marshall University Institutional Animal Care and Use Committee (IACUC) in accordance with the National Institutes of Health (NIH) Guide for the Care and Use of Laboratory Animals. The animal facility is AAALAC-accredited and maintained at an SPF status. C57BL6 mice (10-12 weeks old) were purchased from the Jackson Laboratory (Bar Harbor, ME) and housed in a pathogen-free animal facility under a 12-hour light/dark cycle. Standard rodent chow diet (Rodent Diet 5001, LabDiet, St Louis, MO) and water were supplied ad libitum. […]
Assessment of reticulocyte count by flow cytometry: To measure the reticulocyte count, 10 μl of whole blood sample was gently mixed with 200 μl of pre-chilled PBS/ACD-A (1:4, vol/vol) solution, and then incubated with 10 μl of Thiazole Orange at room temperature in the dark for 30 minutes. […] Pellets were then suspended in 200 μl of PBS/ACD-A buffer and analyzed with the flow cytometer. […] The cells of interest were then evaluated for fluorescence characteristics. Gated populations were set between the negative and positive populations in the fluorescence histogram for Thiazole Orange, thus distinguishing between reticulocytes and mature erythrocytes. The reticulocytes were expressed as percentages of the total erythrocytes. […]

[5] = test system: ⅚th partial nephrectomy (PNx); conditions: cited from earlier work
VEGFA = conditions: human tumor cell lines; cited from earlier work
[6] = Plasma creatinine (mouse creatinine assay kit), renal function; type: in vivo, C57BL6 mice; conditions: PNx mice; compared to the PNx group; data not shown
Description: as §1, §4, §5

RBC [7] = test: Cell surface phosphatidylserine of RBC by Annexin V-APC binding (eryptosis); type: in vivo, C57BL6 mice; conditions: PNx mice; Day 28
Description: as §1
The ⅚^th partial nephrectomy with pole ligation (PNx) and sham surgery: PNx and sham surgery methods were performed as described previously. Briefly, the PNx surgery is divided into two separate procedures. […]
Assessment of cell surface Phosphatidylserine (PS) level of RBC by flow cytometry: The PS-specific binding of Annexin V was used to quantitate PS on RBC membrane for eryptosis. […] Fluorescence parameters were collected and analyzed using NovoExpress software v1.3. […] The threshold value was determined in preliminary studies based on analysis of the negative and positive controls. […]

## pNaKtide: GRKKRRQRRRPPQSATWLALSRIAGLCNRAVFQ; TAT cell penetrating peptide of SEQ ID NO: 2 fused to the NaKtide sequence; cell membrane permeable (TAT NaKtide Fusion Polypeptide)
Protein carbonylation
  PNx-induced protein carbonylation of plasma samples: reduces PNx-induced protein carbonylation nearly back to normal level
[1]
  Iron homeostasis: plasma iron level, TIBC, UIBC and iron saturation rate: did not significantly change iron homeostasis
EPO; PNx mice
  Plasma EPO level, treated PNx groups vs Sham group: significantly higher compared with the Sham group
EPO; Sham mice
  Plasma EPO level, Sham+pNaKtide vs Sham: similar
RBC [2]; PNx mice, untreated PNx group 19 days, sham 34 days
  RBC half-life, treated PNx groups: 35 days and 34 days
RBC [2]; Sham mice, untreated sham group 34 days
  RBC half-life, Sham+pNaKtide group: 33 days and 32 days
[3]; PNx mice, Day 14 and 28, 25 mg/kg
  Hematocrit (Hct), PNx-induced decrease: corrected by pNaKtide administration; also recorded: ameliorated the anemia
[3]; Sham mice
  Hematocrit values in sham animals: did not change hematocrit values
[4]
  PNx-induced increase in plasma BUN: did not ameliorate PNx-induced increase in BUN
reticulocytes; PNx mice
  Reticulocyte count (normalized with hematocrit) in PNx group: significantly reduces reticulocyte count
reticulocytes; Sham mice
  Reticulocyte count (normalized with hematocrit) in Sham group: did not significant affect reticulocyte count
[5]; PNx, background
  PNx-induced anemia (earlier studies): restored
[5]; systemic administration
  Plasma BUN and creatinine in the setting of PNx (previous observations): neither systemic administration of pNaKtide nor lentiviral specific delivery of NaKtide to adipocytes resulted in substantial changes in plasma BUN and creatinine
VEGFA
  Expression of VEGFA: reduced the expression of VEGFA
[6]
  PNx-induced increase in plasma creatinine level: did not significantly reduce PNx-induced increase in creatinine level
RBC [7]
  PNx-induced increase in Annexin V binding (PS exposure at the cell surface, eryptosis): blocked
